In PubChem BioAssay AID2685 (National Center for Advancing Translational Sciences (NCATS), 2010):
The list shows a part of the results. The main result of the screen is listed elsewhere. These columns were measured beside it and carry no call. Most of these compounds were active or inconclusive in the main read-out, so they are no random draw. The note in brackets gives the kind of curve behind each potency; many fits are weak.

Experiment: qHTS Assay for Lipid Storage Modulators in Drosophila S3 Cells;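 on cell number change: cells counted by Cell Tracker Red CMTPX staining in the red channel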
Conditions: BODIPY lipid droplet fluorescence, 18-24 h; for cell number change: measured here: cell count max response, cells fed with added oleic acid
Method in brief: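 Drosophila S3 cells loaded with oleic acid (400 uM, as added) and compounds at several concentrations; lipid droplets imaged by 488-nm laser-scanning cytometry, 500–530 nm intensity and object ratio to cell channel. Percent activity normalized to 20 uM Triacsin C.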

[1] = measured here: lipid fluorescence (Fed channel) AC50, cells fed with added oleic acid
[2] = measured here: cell number channel AC50, cells fed with added oleic acid

Row | Compound | cell number change [%] | AC50 [1] | AC50 [2]
1 | CCOc1ccccc1NC(=O)C1CCCN1C(=O)OCc1ccccc1 (stereo not given) | -13 | 2.59 µM [rising, full curve] | 
2 | Fc1ccc(N2CCN(Cc3cnc(N4CCOCC4)s3)CC2)cc1 | 27.1 | 0.651 µM [rising, full curve] | 
3 | O=C(N1CCOCC1)N1CCOCC1 | 0.685 |  | 
4 | Cc1ccc(C(=O)NCC(c2cccs2)N(C)C)cc1S(=O)(=O)N1CCOCC1 (stereo not given) | -28.4 | 18.4 µM [falling, single point] | 
5 | COCCn1c(SCC(=O)NC2CCCCC2C)nc2ccccc2c1=O (stereo not given) | 14.8 | 29.1 µM [falling, single point] | 
6 | O=c1cc(CO)oc(C(Nc2ccccn2)c2ccc(F)cc2)c1O (stereo not given) | -89.1 | 18.4 µM [falling, partial curve] | 16.4 µM [falling, partial curve]
7 | COc1cccc(C(C(=O)NC2CCCC2)N(C(=O)c2ccco2)c2ccccc2F)c1OC (stereo not given) | -6.58 |  | 
8 | CCC(=O)N(Cc1cc(=O)[nH]c2ccccc12)c1ccc(OC)cc1 | 12.5 | 29.1 µM [rising, single point] | 0.291 µM [rising, full curve, poor fit]
9 | CCCCN(C)S(=O)(=O)c1ccc(C(=O)N=c2sc3cc(NC(C)=O)ccc3n2C)cc1 | -11.7 | 16.4 µM [rising, single point] | 0.326 µM [falling, partial curve, poor fit]
10 | O=C(CNC(=O)COc1ccccc1)NCc1cccnc1 | 7.66 | 2.31 µM [rising, partial curve] | 
11 | COC(=O)c1cc(S(=O)(=O)NC2CCC(C)CC2)cn1C (stereo not given) | -6.93 |  | 
12 | O=C(NC1CCCc2ccccc21)c1cccc(S(=O)(=O)N2CCN(c3ccccc3)CC2)c1 (stereo not given) | 31.9 |  | 29.1 µM [rising, single point]
13 | CC(=O)/C=C/n1c(=S)oc2ccccc21 | -41.8 | 2.59 µM [falling, full curve] | 6.51 µM [falling, partial curve]
14 | CCOc1ccc(/C=C/C(=O)N(CC)CC(=O)Nc2ccc3c(c2)OCCO3)cc1OCC |  | 29.1 µM [rising, single point] | 
15 | O=C(Nc1ccc(C(=O)N2CCCCC2)cc1)c1ccc([N+](=O)[O-])cc1 | -6.44 | 29.1 µM [rising, single point] | 
16 | N#Cc1cn(-c2ccccc2)nc1C(=O)c1ccccc1 |  |  | 0.731 µM [rising, single point]
17 | CCc1ccc(C(=O)C[n+]2cccc3cc(OC)ccc32)cc1 | -7.5 | 14.6 µM [falling, single point] | 
18 | CCN(CC(=O)NCc1ccc(Cl)cc1)C(=O)/C=C/c1ccc(C#N)cc1 | 21.3 | 6.51 µM [falling, single point] | 
19 | CCNc1oc(-c2ccccc2F)nc1S(=O)(=O)c1ccccc1 | -4.34 |  | 
20 | O=C(O)C1CC=CCC1C(=O)Nc1cccc(C(=O)N2CCCCC2)c1 (stereo not given) | 6.64 |  | 

Numbers 1 to 3, quoted:
Row | Compound | cell number change [%] | AC50 [1] | AC50 [2]
1 | CCOc1ccccc1NC(=O)C1CCCN1C(=O)OCc1ccccc1 (stereo not given) | -13 | 2.59 µM [rising, full curve] | 
2 | Fc1ccc(N2CCN(Cc3cnc(N4CCOCC4)s3)CC2)cc1 | 27.1 | 0.651 µM [rising, full curve] | 
3 | O=C(N1CCOCC1)N1CCOCC1 | 0.685 |  | 

Later entries.

Row | Compound | cell number change [%] | AC50 [1] | AC50 [2]
21 | O=[N+]([O-])c1cc(C(F)(F)F)cc([N+](=O)[O-])c1NCCCNc1ccc([N+](=O)[O-])c2cccnc12 | -40.4 | 18.4 µM [falling, partial curve] | 23.1 µM [falling, single point]
22 | Cc1cc(C)c(C)c(S(=O)(=O)N2CCN(C(=O)CNC(=O)c3ccco3)CC2)c1C | 4.37 | 8.2 µM [rising, partial curve] | 
23 | COc1cc(C(C#N)N2CCOCC2)ccc1O (stereo not given) | -8.31 |  | 
24 | Cc1ccc(OCC(=O)NNC(=O)CSC(=S)N2CCCC2)cc1 | -92.2 | 29.1 µM [rising, single point] | 20.6 µM [falling, single point]
25 | COc1ccc(CCNC(C)=O)cc1 | 1.11 | 0.146 µM [falling, full curve, poor fit] | 
26 | Cc1nn(C(=O)CCC(=O)NCCc2ccccc2)c2ccccc12 |  |  | 0.082 µM [rising, full curve, poor fit]
27 | CCC(C)c1ccc(NC(=O)COC(=O)c2nc3nccc(C)n3n2)cc1 (stereo not given) | 21.9 | 0.631 µM [rising, full curve, poor fit] | 
28 | CC(NC(=O)NC(=O)c1ccc(Cl)cc1)c1ccccc1 (stereo not given) | -19.3 | 29.1 µM [rising, single point] | 
29 | Cc1ccc2cc(CN(c3ccccc3)S(=O)(=O)c3ccccc3)c(=O)[nH]c2c1 | 9.93 |  | 
30 | O=C(N/N=C/c1cc(Br)c(O)c(Br)c1O)c1ccc2c(c1)OCCO2 | 5.88 | 0.206 µM [rising, single point] | 
31 | CS(=O)(=O)N(CC(=O)N1CCOCC1)c1ccccc1 | -1.92 | 20.6 µM [rising, single point] | 
32 | CN1C(=O)/C(=C\C(=O)c2cccs2)c2ccccc21 | -31.5 |  | 7.31 µM [falling, single point]
33 | CC(CNC(=O)CCc1nnc(CCC2CCCCC2)o1)c1ccccc1 (stereo not given) | -29.8 | 18.4 µM [falling, partial curve] | 
34 | COc1ccc(C(C)NC(=S)NC2CCCCC2)cc1OC (stereo not given) | 15.5 |  | 
35 | Cc1ccc(NC(=O)C(=O)NCCN2CCN(S(=O)(=O)c3ccccc3)CC2)cc1C | 20.2 |  | 0.092 µM [falling, full curve, poor fit]
36 | Cc1cc(C)n2nc(NCc3ccccc3)nc2n1 | 5.23 |  | 
37 | CCOC(=O)c1cc(C)sc1NC(=S)Nc1ccccc1 | 34.8 | 4.11 µM [rising, partial curve, poor fit] | 8.2 µM [rising, partial curve, poor fit]
38 | O=C(Nc1cccc(Cl)c1N1CCOCC1)c1ccc([N+](=O)[O-])o1 | 10.7 | 0.184 µM [rising, full curve, poor fit] | 
39 | CCN(CC)c1ccc(/C=N/NC(=O)c2ccco2)cc1 | 6.66 | 1.03 µM [rising, full curve, poor fit] | 
40 | NC(=O)C1CCN(C(=O)CCc2ccsc2)CC1 | 10.8 | 32.6 µM [rising, partial curve, poor fit] | 
